The results in this text go back to patent US7455840B2, “Compositions and methods to reduce mutagenesis” (priority 2003, dated 2008).

Structures are written as SMILES.

The subject of this assay is wild type MG1655 E. coli.

Take `O=C(O)c1cn(C2CC2)c2cc(N3CCNCC3)c(F)cc2c1=O` [ciprofloxacin]: the “number of mutations per viable cell per day after exposure to the antibiotic” value is listed as 2.9(+/−0.41)×10^−5 mutations per viable cell per day. In addition, for the setting “solid media, 35 ng/mL ciprofloxacin, versus exponential growth before exposure”, the “increase of number of mutations per viable cell per day after exposure to the antibiotic” value is on record as “increased by at least four-orders of magnitude”.
